# Laboratory results as given in patent US10987357B2, “Aerosolized fluoroquinolones and uses thereof” (Horizon Orphan, LLC, priority 2005, dated 2021).
# Procedure: In the second test, the tolerability and taste of a small aerosol sample from a 0.5 ml aliquot of the test formulation was determined in a single healthy human volunteer, following nebulization in a PARI eFlow nebulizer (Table 12).
# The tolerability and taste of the drug during a very brief administration period and for a period of 10 minutes post administration were monitored. Tolerability parameters were of the following types: (i) cough, cough sensation, or sneezing (ii) irritation, burning or tightness of throat, (ii) irritation or runniness in nasal passages or eyes, (iii) irritation, burning or tightness of the lungs or shortness of breadth, and (iv) dizziness, headache, nausea or other systemic effects.
smiles,measurement,setting,value
CCn1cc(C(=O)O)c(=O)c2cc(F)c(N3CCN(C)CC3)cc21 [Pefloxacin],Aerosol Tolerability and Taste,"aerosol from 0.5 ml aliquot, single volunteer","chemical taste, some cough"
same,cough on aerosol exposure,in vivo,associated with cough
